Several values for one entry are separate records, joined by “and”; a condition that tells them apart may be missing. Equal values may be shown once. Some of the results follow. Shown are side measurements of this screen, not its main read-out; they come without a call. The list favours compounds with an active or inconclusive main result. The note in brackets gives the kind of curve behind each potency; many fits are weak.
Assay: qHTS Assay for Modulators of Lamin A Splicing
Details: HeLa LMNA splicing GFP/RFP minigene ratio, 48 h
In short: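 Read-out is the ratio of GFP to DsRed2 object intensity, acquired by 488 nm laser-scanning cytometry on HeLa lamin A-EGFP minigene reporter cells. Compound incubation 48 hrs at 37 °C in Opti-MEM with 2% FBS; DMSO 0.5% final.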

[1] = measured here: GFP splicing reporter channel
[2] = measured here: RFP viability control channel

Row | Structure (SMILES) | AC50 [1] | AC50 [2]
1 | Cc1cc(C)n(CC(=O)NCc2cc(-c3nn(C)c(=O)c4ccccc34)ccc2C)n1 | 10 µM [rising, partial curve] | 12.6 µM [rising, partial curve]
2 | Cc1ccccc1OCC(=O)Nc1ccccc1-c1ccccc1NC(=O)COc1ccccc1C | 7.08 µM [rising, full curve, poor fit] | 7.94 µM [rising, partial curve, poor fit]
3 | Cc1ccc(N(CC(=O)N/N=C/c2cccc(Br)c2)S(C)(=O)=O)cc1 | 20 µM [rising, partial curve] | 14.1 µM [rising, partial curve]
4 | Oc1ccc(N2CCN(C(=S)NCc3ccccc3)CC2)cc1 | 10 µM [falling, partial curve, poor fit] | –
5 | COCCNC(=S)N/N=C(\C)c1cccc(C(F)(F)F)c1 | 6.31 µM [falling, partial curve, poor fit] | –
6 | CCCN(CCC)S(=O)(=O)c1ccc(C(=O)Nc2ccc(OCC(=O)N3CCOCC3)cc2)cc1 | 2.82 µM [rising, single point] | 3.16 µM [rising, full curve]
7 | Cc1cc(C(=O)COC(=O)CC2Sc3ccccc3NC2=O)c(C)n1-c1cccc(C(F)(F)F)c1 (configuration not stated) | – | 35.5 µM [rising, single point]
8 | CCn1c(SCc2ccc(C(=O)Nc3nccs3)cc2)nnc1-c1ccc(N)cc1 | – | 17.8 µM [rising, single point]
9 | CCNC1=C(Cl)C(=O)c2ccccc2C1=O | 7.08 µM [falling, partial curve] | 15.8 µM [falling, partial curve]
10 | O=C(Nc1ccc(Nc2ccccc2)cc1)C(Cl)(Cl)Cl | 11.2 µM [rising, single point] | –
11 | COc1ccc(NC(=O)c2cc(S(=O)(=O)N3CCCCC3)cn2C)cc1Cl | 3.55 µM [falling, single point] | 1.26 µM [falling, full curve, poor fit]
12 | O=C(Nc1ccc(S(=O)(=O)N2CCCCC2c2cccnc2)cc1)c1ccc(F)cc1 (configuration not stated) | – | 3.98 µM [falling, partial curve, poor fit]
13 | O=C(Nc1nc(-c2ccccn2)cs1)c1ccc(Br)s1 | 35.5 µM [rising, single point] | 12.6 µM [rising, partial curve]
14 | CN(C)c1ccc(-c2noc(C3CC(=O)N(c4ccc5c(c4)OCCO5)C3)n2)cc1 (configuration not stated) | – | 12.6 µM [rising, single point]
15 | COc1cc(C(=O)OCCCN2CCCN(CCCOC(=O)c3cc(OC)c(OC)c(OC)c3)CC2)cc(OC)c1OC | 708 nM [falling, full curve, poor fit] and 2 µM [falling, partial curve, poor fit] | 0.00158 µM [falling, full curve, poor fit]
16 | COCCn1c(C)cc(C(=O)CSc2nncn2-c2ccccc2)c1C | 15.8 µM [rising, single point] | –
17 | CC(/C=C/c1ccccc1)=N\NC(=O)C1CC1(C)c1ccccc1 (configuration not stated) | – | 11.2 µM [rising, single point]
18 | COC(=O)C1=C(C)NC(C)=C([N+](=O)[O-])C1c1ccccc1C(F)(F)F (configuration not stated) | – | 0.00447 µM [falling, full curve, poor fit]
19 | O=c1oc2ccccc2cc1-c1ccc(O)cc1O | 15.8 µM [rising, partial curve, poor fit] | 12.6 µM [rising, partial curve, poor fit]
20 | CC(=O)N1CCN(CC(=O)Nc2ccccc2Sc2ccccc2)CC1 | 12.6 µM [rising, partial curve] | 17.8 µM [rising, partial curve]
21 | O=C(c1ccco1)N1CCN(c2nc(C(F)(F)F)nc3c2nnn3Cc2ccccc2)CC1 | 35.5 µM [rising, single point] | 35.5 µM [rising, single point]
22 | C/C(=N\OCC(=O)NC12CC3CC(CC(C3)C1)C2)c1cc2ccccc2o1 | 10 µM [rising, partial curve, poor fit] | 11.2 µM [rising, partial curve]
23 | CCCC/C(O)=C1\C(=O)CC(C)(C)CC1=Nc1ccc(OC)cc1 | 11.2 µM [rising, single point] | 15.8 µM [rising, single point]
24 | COC(=O)c1ccc(COc2ccc(-c3nn[nH]n3)cc2)cc1 | – | 0.282 µM [falling, full curve]
25 | CN(C)c1ccc(NC(=O)CSc2nc3ccccc3c(=O)n2C2CCCCC2)cc1 | 4.47 µM [rising, full curve, poor fit] | 12.6 µM [rising, partial curve]
26 | CC(Oc1ccccc1)C(=O)OCc1cc(=O)n2nc(C(C)C)sc2n1 (configuration not stated) | 6.31 µM [falling, partial curve, poor fit] | 0.00316 µM [falling, full curve, poor fit]
27 | CCCSc1ccc(C(=O)Nc2ccc(Cl)cc2)cn1 | 2.24 µM [falling, partial curve, poor fit] | –
28 | Cc1ccc(-c2noc(CNCCCN(C)C)n2)cc1 | – | 0.0112 µM [falling, full curve, poor fit]

Row | Structure (SMILES) | AC50 [1] | AC50 [2]
29 | CC(=O)c1ccc(Sc2ccc(C(C)=O)cc2)cc1 | – | 28.2 µM [rising, single point]
30 | COc1ccc(Cl)cc1NC(=O)C1CCN(S(=O)(=O)c2ccc3c(c2)CCCN3C(=O)C2CCC2)CC1 | 6.31 µM [falling, full curve, poor fit] | –
31 | O=C(NCCCN1CCOCC1)c1ccc(Br)cc1Br | 2.82 µM [falling, single point] | 0.501 µM [falling, single point]
32 | COc1ccccc1NC(=O)Cn1cc(C(=O)c2ccncc2)c(=O)c2cc(C)ccc21 | – | 0.00316 µM [falling, full curve, poor fit]
33 | CCn1c(N2CCN(CC(=O)c3ccc(OC)cc3)CC2)nc2ccccc21 | – | 8.91 µM [rising, partial curve]
34 | O=C(CCC(=O)N1CCN(S(=O)(=O)c2ccc(Cl)cc2)CC1)Nc1cccc(Br)c1 | – | 11.2 µM [rising, partial curve, poor fit]
35 | COc1cccc(-c2cc(C(=O)Nc3c(C)nn(Cc4ccccc4)c3C)no2)c1 | – | 35.5 µM [rising, single point]
36 | CCOC(=O)N1CCN(C(=O)CSc2nnc(COc3ccc(Cl)cc3)o2)CC1 | – | 11.2 µM [rising, single point]
37 | Cc1ccc(NC(=O)COc2ccc(Br)cc2CO)cc1 | – | 28.2 µM [rising, single point]
38 | Cc1ccc2nc(SCC(=O)Nc3cc(C(C)(C)C)nn3-c3ccccc3)[nH]c2c1 | – | 20 µM [rising, single point]
39 | CCCc1nn(C)c(C(=O)Nc2ccc(Cl)cc2)c1Cl | – | 22.4 µM [rising, partial curve, poor fit]
40 | Cn1cccc1/C=C1\CCC/C(=C\c2cccn2C)C1=O | 12.6 µM [rising, partial curve, poor fit] | –
41 | Cc1ccc(C(=O)OCc2ccc3c(c2)OCO3)cc1S(=O)(=O)N1CCCCC1 | – | 14.1 µM [rising, partial curve]
42 | Cc1nnc(SCC(=O)N2c3ccccc3C(C)(c3ccccc3)CC2(C)C)s1 (configuration not stated) | – | 11.2 µM [rising, partial curve]
43 | CCCOc1ccc(C2=NNC(=O)CC2)cc1 | 1.58 µM [falling, partial curve, poor fit] | –
44 | CCOc1ccccc1Oc1coc2cc(OCC(=O)O)ccc2c1=O | 0.0631 µM [falling, full curve, poor fit] | –
45 | CSc1nc(N)n2nc(-c3ccccc3)cc2n1 | – | 0.224 µM [falling, full curve, poor fit]
46 | COc1ccccc1CNC(=O)C(=O)NCC(c1ccco1)N1CCOCC1 (configuration not stated) | 0.0355 µM [falling, full curve, poor fit] | –
47 | Cc1ccc(C)n1-c1cccc(S(=O)(=O)N2CCOCC2)c1 | 31.6 µM [rising, single point] | –
48 | Cc1ccc(NC(=O)CN2C(=O)CC(c3ccc(F)cc3)=Nc3ccccc32)cc1F | – | 35.5 µM [falling, partial curve, poor fit]
49 | CCn1cc(CN2N=C(C)CC2c2ccccc2)c(C)n1 (configuration not stated) | 0.0355 µM [falling, full curve, poor fit] | 0.0355 µM [falling, full curve, poor fit]
50 | COc1cccc(/C=N/NC(=O)C[n+]2ccccc2)c1O | 35.5 µM [rising, single point] | –
51 | Cn1c(N)c(C(=O)COC(=O)c2cc(C(F)(F)F)nc3ccccc23)c(=O)n(Cc2ccccc2)c1=O | – | 22.4 µM [rising, partial curve]
52 | O=C(COC(=O)Cc1ccccc1F)Nc1ccc2c(c1)OCO2 | – | 11.2 µM [falling, partial curve, poor fit]
53 | COc1ccc(NS(=O)(=O)c2ccc(NC(=S)NC(=O)CC(C)C)cc2)cc1 | 12.6 µM [falling, single point] | –
54 | C=CCNC(=S)NNC(=O)c1ccc(OCC(C)C)cc1 | – | 35.5 µM [rising, single point]
55 | COc1ccc(OCC(O)Cn2c(Br)nc3c2c(=O)[nH]c(=O)n3C)cc1 (configuration not stated) | – | 35.5 µM [rising, single point]

Entries from the list above with bromine (6):
Row | Structure (SMILES) | AC50 [1] | AC50 [2]
3 | Cc1ccc(N(CC(=O)N/N=C/c2cccc(Br)c2)S(C)(=O)=O)cc1 | 20 µM [rising, partial curve] | 14.1 µM [rising, partial curve]
13 | O=C(Nc1nc(-c2ccccn2)cs1)c1ccc(Br)s1 | 35.5 µM [rising, single point] | 12.6 µM [rising, partial curve]
31 | O=C(NCCCN1CCOCC1)c1ccc(Br)cc1Br | 2.82 µM [falling, single point] | 0.501 µM [falling, single point]
34 | O=C(CCC(=O)N1CCN(S(=O)(=O)c2ccc(Cl)cc2)CC1)Nc1cccc(Br)c1 | – | 11.2 µM [rising, partial curve, poor fit]
37 | Cc1ccc(NC(=O)COc2ccc(Br)cc2CO)cc1 | – | 28.2 µM [rising, single point]
55 | COc1ccc(OCC(O)Cn2c(Br)nc3c2c(=O)[nH]c(=O)n3C)cc1 (configuration not stated) | – | 35.5 µM [rising, single point]

2 of these compounds in a different format.
Row,Structure (SMILES),AC50 [1],AC50 [2]
38,Cc1ccc2nc(SCC(=O)Nc3cc(C(C)(C)C)nn3-c3ccccc3)[nH]c2c1,–,"20 µM [rising, single point]"
42,Cc1nnc(SCC(=O)N2c3ccccc3C(C)(c3ccccc3)CC2(C)C)s1 (configuration not stated),–,"11.2 µM [rising, partial curve]"
